Three molecules from article PMC10445727 can be followed below.

Chains of the proteins cited; added tags and fusions are not shown.
UniProt Q9BSJ5: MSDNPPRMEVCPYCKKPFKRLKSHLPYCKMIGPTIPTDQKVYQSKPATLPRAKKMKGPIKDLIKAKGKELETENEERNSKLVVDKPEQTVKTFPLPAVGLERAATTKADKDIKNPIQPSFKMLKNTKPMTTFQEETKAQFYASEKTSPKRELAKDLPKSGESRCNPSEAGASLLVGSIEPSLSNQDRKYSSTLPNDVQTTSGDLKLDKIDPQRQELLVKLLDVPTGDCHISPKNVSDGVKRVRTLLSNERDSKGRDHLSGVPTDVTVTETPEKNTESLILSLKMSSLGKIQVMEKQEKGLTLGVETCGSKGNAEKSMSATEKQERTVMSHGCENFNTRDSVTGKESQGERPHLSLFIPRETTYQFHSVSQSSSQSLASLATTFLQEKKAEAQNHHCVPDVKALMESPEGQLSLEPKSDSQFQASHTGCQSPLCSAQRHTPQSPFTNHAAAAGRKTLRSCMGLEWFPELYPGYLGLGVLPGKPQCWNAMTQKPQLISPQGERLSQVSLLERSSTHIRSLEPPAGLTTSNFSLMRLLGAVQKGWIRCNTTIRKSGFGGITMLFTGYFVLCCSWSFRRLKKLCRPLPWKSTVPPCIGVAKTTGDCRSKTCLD

No constants are given. Whether binding was seen depends on the method and setting. In cells and extracts the contact can be indirect. These calls come from enrichment with a bait or labelling near it, and not all partners need be listed.

The target in assay [1] is C17orf80–BirA*(N), N-terminally tagged C17orf80–BirA* fusion (human), Q9BSJ5. Description: proximity labelling; BioID: Flp-In T-REx 293 cells expressing C17orf80–BirA* fusions, induced with AnTET (1 ng/ml N-term, 3 ng/ml C-term) and given biotin for 22–24 h; control: the same cells with biotin but without AnTET; streptavidin–agarose pulldown from total cell lysates, on-bead trypsin digestion, LC-MS/MS, four biological replicates, FDR<0.05, S0=0.1. The following applies: remark: other sources report otherwise.

Assay [2] has as its target C17orf80–BirA*(N), N-terminally tagged C17orf80–BirA* fusion (human) (UniProt Q9BSJ5). The assay is described as above.

B1: mitochondrial transcription factor A (TFAM), Q00059 43-246 (protein)
chain: SSVLASCPKKPVSSYLRFSKEQLPIFKAQNPDAKTTELIRRIAQRWRELPDSKKKIYQDAYRAEWQVYKEEISRFKEQLTPSQIMSLEKEIMDKHLKRKAMTKKKELTLLGKPKRPRSAYNVYVAERFQEAKGDSPQEKLKTVKENWKNLSDSEKELYIQHAKEDETRYHNEMKSWEEQMIEVGRKDLLRRTIKKQRKYGAEEC
With B1, in assay [1], the binding result is listed as “binds”.

B2: mitochondrial single-strand binding protein (mtSSB) (protein, UniProt Q04837 17-148)
chain: ESETTTSLVLERSLNRVHLLGRVGQDPVLRQVEGKNPVTIFSLATNEMWRSGDSEVYQLGDVSQKTTWHRISVFRPGLRDVAYQYVKKGSRIYLEGKIDYGEYMDKNNVRRQATTIIADNIIFLSDQTKEKE
Turning to B2, the binding result in assay [2] is recorded as “binds”.

B3: mitochondrial replicative helicase Twinkle (protein, UniProt Q96RR1 32-684)
chain: APGPPRRRYRKETLQALDMPVLPVTATEIRQYLRGHGIPFQDGHSCLRALSPFAESSQLKGQTGVTTSFSLFIDKTTGHFLCMTSLAEGSWEDFQASVEGRGDGAREGFLLSKAPEFEDSEEVRRIWNRAIPLWELPDQEEVQLADTMFGLTKVTDDTLKRFSVRYLRPARSLVFPWFSPGGSGLRGLKLLEAKCQGDGVSYEETTIPRPSAYHNLFGLPLISRRDAEVVLTSRELDSLALNQSTGLPTLTLPRGTTCLPPALLPYLEQFRRIVFWLGDDLRSWEAAKLFARKLNPKRCFLVRPGDQQPRPLEALNGGFNLSRILRTALPAWHKSIVSFRQLREEVLGELSNVEQAAGLRWSRFPDLNRILKGHRKGELTVFTGPTGSGKTTFISEYALDLCSQGVNTLWGSFEISNVRLARVMLTQFAEGRLEDQLDKYDHWADRFEDLPLYFMTFHGQQSIRTVIDTMQHAVYVYDICHVIIDNLQFMMGHEQLSTDRIAAQDYIIGVFRKFATDNNCHVTLVIHPRKEDDDKELQTASIFGSAKASQEADNVLILQDRKLVTGPGKRYLQVSKNRFDGDVGVFPLEFNKNSLTFSIPPKNKARLKKIKDDTGPVAKKPSSGKKGATTQNSEICSGQAPTPDQPDTSKRSK
For B3, the binding entry in assay [2] is “binds”.
